According to US20220372441A1, “MICRORNAS ENRICHED IN MEGAKARYOCYTIC EXTRACELLULAR VESICLES AND USES THEREOF” (University of Delaware, priority 2019, published 2022):
At least one structure is not confirmed: it was looked up by name or label, or the drawing left a doubt. Some entries repeat one wording, which the source may state once for all of them. Some entries share one result that the patent states for a list of compounds.

Assays:
[1] = test system: CD34+ HSPCs; experiment: Signaling-inhibitor experiments: MkMP-induced Mk differentiation of inhibitor-pretreated CD34+ HSPCs; conditions: for decrease of total-cell numbers: day 7 of co-culture (FIG. 11F); for CD42b expression: day 12, MkMP co-culture (FIG. 11C); for CD41 expression: day 12, MkMP co-culture, compared to MkMP control (FIG. 11B)
[2] = test system: PI3K/Akt/mTOR signaling; experiment: Intracellular protein analysis by flow cytometry (p-mTOR, Akt, p-Akt); type: cell-based, human; conditions: 24 hours MkMP co-culture; for p-mTOR and Akt expression: flow cytometry (FIGS. 12C, 12D)

Structure (SMILES)	decrease of total-cell numbers [1]	CD42b expression [1]	CD41 expression [1]	p-mTOR and Akt expression [2]	level of p-Akt ([2]; flow cytometry (FIG. 12E))	CD34 expression ([1]; day 7 and day 12, compared to MkMP or vehicle controls (FIG. 11D))
O=c1cc(N2CCOCC2)oc2c(-c3ccccc3)cccc12 [LY-294002]	more than 75%	significantly inhibited	significantly suppressed CD41 expression	–	–	–
COC[C@H]1OC(=O)c2coc3c2[C@@]1(C)C1=C(C3=O)[C@@H]2CCC(=O)[C@@]2(C)C[C@H]1OC(C)=O [Wortmannin]	more than 75%	–	–	brought the expression levels back to that of vehicle control	–	–
Oc1c2ccccc2c2c3c(cccc13)N=N2 [SP600125]	more than 75%	–	significantly suppressed CD41 expression	brought the expression levels back to that of vehicle control	not affected	higher fraction of cells expressing CD34
CO[C@H]1C[C@@H]2CC[C@@H](C)[C@@](O)(O2)C(=O)C(=O)N2CCCC[C@H]2C(=O)O[C@H]([C@H](C)C[C@@H]2CC[C@@H](O)[C@H](OC)C2)CC(=O)[C@H](C)/C=C(\C)[C@@H](O)[C@@H](OC)C(=O)[C@H](C)C[C@H](C)/C=C/C=C/C=C/1C [Rapamycin]	more than 75%	significantly inhibited	significantly suppressed CD41 expression	–	–	–
